According to patent publication US6936723B2, “Synthetic salicylihalamides, apicularens and derivatives thereof” (Board of Regents, The University of Texas System, priority 2000, dated 2005):
Some entries share one result that the patent states for a list of compounds.

Protein sequences, listed by entry. Tags and fused reporters are not part of them. Lines headed by an entry give the natural chain unless they say otherwise; changes in a name come on top.
UniProt P23956: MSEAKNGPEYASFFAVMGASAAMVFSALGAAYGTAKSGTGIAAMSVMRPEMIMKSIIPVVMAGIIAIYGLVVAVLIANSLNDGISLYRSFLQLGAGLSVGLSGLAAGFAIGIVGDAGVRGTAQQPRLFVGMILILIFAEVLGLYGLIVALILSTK
UniProt P61420: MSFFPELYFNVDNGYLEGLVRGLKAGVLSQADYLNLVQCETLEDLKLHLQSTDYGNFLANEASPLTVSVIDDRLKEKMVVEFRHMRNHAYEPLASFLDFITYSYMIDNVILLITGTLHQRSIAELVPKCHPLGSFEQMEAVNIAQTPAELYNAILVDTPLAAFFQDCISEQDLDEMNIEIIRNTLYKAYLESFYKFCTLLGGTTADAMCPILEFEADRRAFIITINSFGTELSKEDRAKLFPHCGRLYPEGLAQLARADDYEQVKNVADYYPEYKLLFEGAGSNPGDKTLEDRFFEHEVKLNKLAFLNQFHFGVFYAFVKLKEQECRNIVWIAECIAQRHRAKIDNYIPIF
UniProt Q29466: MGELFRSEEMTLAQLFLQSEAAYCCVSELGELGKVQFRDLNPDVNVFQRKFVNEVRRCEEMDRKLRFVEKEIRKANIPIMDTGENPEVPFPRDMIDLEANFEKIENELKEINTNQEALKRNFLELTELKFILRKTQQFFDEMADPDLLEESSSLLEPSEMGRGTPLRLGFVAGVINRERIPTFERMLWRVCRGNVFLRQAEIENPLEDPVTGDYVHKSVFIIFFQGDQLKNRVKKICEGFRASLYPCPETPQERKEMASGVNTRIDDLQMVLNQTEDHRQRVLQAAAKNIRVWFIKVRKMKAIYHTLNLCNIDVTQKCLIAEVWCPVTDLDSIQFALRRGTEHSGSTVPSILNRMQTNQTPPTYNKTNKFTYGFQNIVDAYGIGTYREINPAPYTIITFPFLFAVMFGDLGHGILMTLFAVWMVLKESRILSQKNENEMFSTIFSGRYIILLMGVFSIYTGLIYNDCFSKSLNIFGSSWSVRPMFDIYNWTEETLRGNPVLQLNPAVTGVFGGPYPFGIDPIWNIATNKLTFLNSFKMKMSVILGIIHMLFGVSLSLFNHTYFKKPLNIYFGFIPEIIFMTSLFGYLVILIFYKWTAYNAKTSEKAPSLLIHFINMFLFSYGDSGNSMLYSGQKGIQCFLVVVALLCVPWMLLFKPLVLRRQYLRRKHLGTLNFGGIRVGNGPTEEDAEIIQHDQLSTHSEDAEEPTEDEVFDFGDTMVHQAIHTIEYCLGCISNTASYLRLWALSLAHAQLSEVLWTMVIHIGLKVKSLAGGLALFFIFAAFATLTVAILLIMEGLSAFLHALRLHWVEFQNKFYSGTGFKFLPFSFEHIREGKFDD

Target: T1, purified reconstituted V-ATPase from bovine brain (Bos taurus, UniProt P23956+P61420+Q29466+Q2TA24)
T1 construct: from tissue; host or cells: bovine brain
Test: Inhibition of purified reconstituted V-ATPase (proton pumping)
Assay type: biochemical
Settings: compared with salicylihalamide
Source text: Therefore, the present invention provides a method for inhibiting the proton-pumping activity of V-ATPase by contacting V-ATPase, either in vitro or in vivo with the compounds of the present invention. […] See Boyd, M. R. et al., J Pharmacol. Exp. Ther. 297, 114-120 (2001); see also, PCT publication WO 00/51589 of Boyd et al. V-ATPase is composed of an ATPase domain and a proton translocating membraneous channel. […] See Crider, Xie and Stone, J. Biol. Chem. 269:17379-17381 (1994) for the experimental procedure for binding. […] See Example 7 and Table 5 below. See also Bill. Crider, Xie and Stone, J Biol. Chem. 269:17379-17381 (1994).
Others in the art typically use crude membrane preparations to assay V-ATPase activity.

SMILES	potency relative to salicylihalamide in the in vitro V-ATPase assay (less potent)
C=CCOC(=O)/C=C/CC1C[C@@H](O)[C@@H](C)C/C=C/Cc2cccc(O)c2C(=O)O1 (some centres unmarked) [Compound 335b]	2-3 orders of magnitude
CCCCCCCC(=O)OCC[C@H]1C[C@@H](O)[C@@H](C)C/C=C/Cc2cccc(O)c2C(=O)O1 [Compound 355]	2-3 orders of magnitude
